Source: article PMC6358605
These are yes or no findings as the source states them, for the method shown. Binding seen in cells or lysates may run through a third protein. A yes stands for co-enrichment or nearness to the bait. Other partners may have been found. Sequences can lack the tags named with a protein.

Target: T1, FLAG-M1-MANF (UniProt Q9CXI5)
T1 sequence: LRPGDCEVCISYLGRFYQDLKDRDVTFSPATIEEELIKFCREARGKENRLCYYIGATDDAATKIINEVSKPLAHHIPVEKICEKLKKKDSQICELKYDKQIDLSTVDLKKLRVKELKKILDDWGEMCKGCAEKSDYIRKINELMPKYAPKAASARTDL
Experiment: affinity purification with mass spectrometry; in vivo cross-linking with 1 mM DSP, lysis in TBS/Ca2+ buffer, ANTI-FLAG-M1 agarose IP of FLAG-M1-MANF from CHO-K1 S21 MANF-/- cells; Coomassie bands excised and analysed by mass spectrometry

binding: binds
B1: Grp170 (endogenous, CHO-K1 S21 cells) (protein, UniProt Q60432 33-999)
chain: LAVMSVDLGSESMKVAIVKPGVPMEIVLNKESRRKTPVTVTLKENERFLGDSAAGMAIKNPKATLRYFQHLLGKQADNPHVALYRDRFPEHELNIDPQRQTVRFQISPQLQFSPEEVLGMVLNYSRSLAEDFAEQPIKDAVITVPAFFNQAERRAVLQAARMAGLKVLQLINDNTATALSYGVFRRKDINSTAQNVMFYDMGSGTTVCTIVTYQTVKTKEAGMQPQLQIRGVGFDRTLGGLEMELRLREHLAKLFNEQRRGQKAKDVRENPRAMAKLLREANRLKTVLSANADHMAQIEGLMDDVDFKAKVTRVESEELCADLFERVPGPVQQALQSAEMSLDEIEQVILVGGATRVPKVQEVLLKAVGKEELGKNINADEAAAMGAVYQAAALSKAFKVKPFVVRDAVIYPILVEFTREVEEEPGVRSLKHNKRVLFSRMGPYPQGKVITFNRYSHDFNFHINYGDLGFLGPEDLRVFGSQNLTTVKLKGVGESLKKYPDYESKGIKAHFNLDESGVLSLDRVESVFETLVEDSPEEESTLTKLGNTISSLFGGGTSSDAKENGTDAVQEEEESPTEGSKDEPGEQGDLKEETEAPVEDTSQPPPPEPKGDAAPEGEKPDEKESGGKSEAQKPEEKGQSGPEGVPPAPEEEKKQKPARKQKMVEEIGVELAVLDLPDLPEDELARSVKKLEDLTLRDLEKQEREKAANSLEAFIFETQDKLYQPEYQEVSTEEQREEISGKLSATSTWLEDEGFGATTVMLKEKLAELKKLCQGLFFRVEERRKWPERLSALDNLLNHSSIFLKGARLIPEMDQIFTEVEMTTLEKVINDTWAWKNATLAEQAKLPATEKPVLLSKDIEAKMMALDREVQYLLNKAKFTKPRPRPKDKNGTRTEPPLNATAGDQEEKVIPPAGQPEEAKPILEPDKEETTTEPTDSEPLELGGPGAESEPKEQTAGQKRSSKNDEL
